We go through 59 molecules from ChEMBL document CHEMBL4513139, “CO-ADD screening of University of Strathclyde (UK) compounds”.

Some of the results follow. Entries with a potency or affinity are not part of this list.

The subject of this assay is Pseudomonas aeruginosa. The settings on record: Concentration 32 ug.mL-1; ASSAY_TEST Inhibition of Bacterial Growth; detection method Absorption (OD600); MEDIA CAMHB; plate type 384well; NBS; CORNING #3640; time 18 hr.
Take `COc1cccc(C(=O)Nc2cc(C(=O)Nc3cc(C(=O)Nc4cn(CCCN(C)C)cn4)n(C)c3)n(C)c2)c1.O=C(O)C(F)(F)F`: the Inhibition was -5.62%.

Take `CC(C)CCc1sc(NC(=O)c2cc(NC(=O)c3ccc(/C=C/c4cc5ccccc5nc4Cl)cc3)cn2C)nc1C(=O)NCCN1CCOCC1.O=C(O)C(F)(F)F`: the Inhibition is -35.38%.

For `CN(C)CCCNC(=O)c1cc(NC(=O)c2cc(NC(=O)c3cc(NC(=N)c4ccccc4)cn3C)cn2C)cn1C.O=C(O)C(F)(F)F.O=C(O)C(F)(F)F`, the Inhibition was -17.58%.

For the molecule `Cc1ccc(S(=O)(=O)NCCc2cn(Cc3cnc(C)nc3N)nn2)cc1`, the Inhibition turned out to be 1.35%.

Turning to `CCOC(=O)c1cc(NC(=O)c2cc(NC(=O)c3nc(N)sc3CCC(C)C)cn2C)cn1C`, the Inhibition was found to be 38.08%.

On to `Cc1ncc(Cn2cc(CCO)nn2)c(N)n1`, for which the Inhibition is listed as -0.49%.

Consider `Cn1cc(NC(=O)c2cc(NC(=O)c3cc(NC(=O)c4ccc(Cl)cc4Cl)cn3C)cn2C)cc1C(=O)NCCN1CCOCC1.O=C(O)C(F)(F)F`, for which the Inhibition is 15.38%.

On to `CN(C)CCCNC(=O)c1cc(NC(=O)c2cc(NC(=O)c3cc(NC(=N)N)cn3C)cn2C)cn1C.O=C(O)C(F)(F)F.O=C(O)C(F)(F)F`, for which the Inhibition is recorded as 12.25%.

Take `COC(=O)CCC(=O)Nc1cc(C(=O)Nc2cc(C(=O)NCCC(=N)N)n(C)c2)n(C)c1.O=C(O)C(F)(F)F`: the Inhibition is reported as -3.66%.

For the molecule `CC(C)CCc1sc(N)nc1C(=O)Nc1cc(C(=O)Nc2cc(C(=O)NCCN3CCOCC3)n(C)c2)n(C)c1.O=C(O)C(F)(F)F`, the Inhibition stood at 12.69%.

Take `CC(C)c1sc(N)nc1C(=O)Nc1cc(C(=O)NCCN2CCOCC2)n(C)c1.O=C(O)C(F)(F)F`: the Inhibition is reported as 17.13%.

For `Cc1ncc(Cn2cc(CCCCO)nn2)c(N)n1`, the Inhibition came to 2.34%.

For the molecule `COc1cccc(C(=N)Nc2cc(C(=O)Nc3cc(C(=O)NCCC(=N)N)n(C)c3)n(C)c2)c1.O=C(O)C(F)(F)F.O=C(O)C(F)(F)F`, the Inhibition came to 16.48%.

Turning to `CCOC(=O)c1cc(NC(=O)c2cc(NC(=O)c3sc(N)nc3C(F)(F)F)cn2C)cn1C`, the Inhibition came out at 24.05%.

As to `Cn1cc(NC(=O)c2cc(NC(=O)c3sc(N)nc3C(F)(F)F)cn2C)cc1C(=O)NCCC(=N)N.O=C(O)C(F)(F)F`, the Inhibition is on record as -23.42%.

`Cc1ncc(Cn2cc(CO)nn2)c(N)n1`: the Inhibition is -32.15%.

`CC(=O)Nc1cc(C(=O)Nc2cc(C(=O)Nc3cc(C(=O)NCCCN(C)C)n(CCC(C)C)c3)n(C)c2)n(C)c1.O=C(O)C(F)(F)F`: the Inhibition was -10.52%.

On to `CN(C)CCCNC(=O)c1cc(NC(=O)c2cc(NC(=O)c3ccc(C(=O)O)cc3)cn2C)cn1C.O=C(O)C(F)(F)F`, for which the Inhibition stood at 6.54%.

For the molecule `CC(C)CCc1sc(NC(=O)c2cc(NC(=O)c3cc(NC(=O)c4ccc(C(=O)O)cc4)cn3C)cn2C)nc1C(=O)NCCCN(C)C.O=C(O)C(F)(F)F`, the Inhibition came out at 7.07%.

On to `CC(C)n1cc(NC(=O)c2cc(NC(=O)c3cc(NC=O)cn3C(C)C)cn2C)cc1C(=O)NCCCN(C)C.O=C(O)C(F)(F)F`, for which the Inhibition was found to be 4.09%.

On to `Cc1ncc(CNc2ccc(C(F)(F)F)cc2)c(N)n1`, for which the Inhibition is given as -17.37%.

In the case of `Cc1ncc(Cn2cc(CCCO)nn2)c(N)n1`, the Inhibition is reported as -31.15%.

Regarding `COc1cccc(C(=N)Nc2cc(C(=O)Nc3cc(C(=O)Nc4cn(CCCN(C)C)cn4)n(C)c3)n(C)c2)c1.O=C(O)C(F)(F)F.O=C(O)C(F)(F)F`, the Inhibition amounted to 5.49%.

On to `COC(=O)c1ccc(C(=O)Nc2cc(C(=O)Nc3cc(C(=O)NCCC(=N)N)n(C)c3)n(C)c2)cc1.O=C(O)C(F)(F)F`, for which the Inhibition was -8.92%.

For the molecule `COC(=O)c1ccc(C(=O)Nc2cc(C(=O)Nc3cc(C(=O)NCCN4CCOCC4)n(C)c3)n(C)c2)cc1.O=C(O)C(F)(F)F`, the Inhibition is listed as 3.6%.

As to `CC(C)c1sc(N)nc1C(=O)Nc1cc(C(=O)Nc2cc(C(=O)NCCN3CCOCC3)n(C)c2)n(C)c1.O=C(O)C(F)(F)F`, the Inhibition came to 0.36%.

For the molecule `Cn1cc(NC(=O)c2cc(NC(=O)c3sc(N)nc3C(F)(F)F)cn2C)cc1C(=O)NCCN1CCOCC1.O=C(O)C(F)(F)F`, the Inhibition is -11.34%.

For the molecule `COCCOC1CCN(C(=O)c2cc(NC(=O)c3cc(NC(=O)c4ccc(/C=C/c5ccc(OC)cc5)cc4)cn3C)cn2C)CC1.O=S(=O)(O)O`, the Inhibition worked out at 6.82%.

As for `Cn1cc(NC(=O)c2cc(NC(=O)c3ccc(/C=C/c4cccc(F)c4)cc3)cn2C)cc1C(=O)NCCN1CCOCC1.O=C(O)C(F)(F)F`, the Inhibition is listed as -3.58%.

In the case of `COC(=O)CCC(=O)Nc1cc(C(=O)Nc2cc(C(=O)NCCCN(C)C)n(C)c2)n(C)c1.O=C(O)C(F)(F)F`, the Inhibition was -41.02%.

Consider `CN(C)CCCNC(=O)c1cc(NC(=O)c2cc(NC(=O)CCC(=O)O)cn2C)cn1C.O=C(O)C(F)(F)F`, for which the Inhibition is 4.9%.

Take `Cc1ncc(CNc2ccc(Cl)cc2)c(N)n1`: the Inhibition turned out to be 22.29%.

Regarding `CC(C)CCc1sc(NC(=O)c2cc(NC(=O)c3ccc(/C=C/c4cc5ccccc5nc4On4nnc5ccccc54)cc3)cn2C)nc1C(=O)NCCN1CCOCC1.O=C(O)C(F)(F)F`, the Inhibition is on record as -45.98%.

Take `Cc1ncc(CNc2ccc(F)cc2)c(N)n1`: the Inhibition was 25.33%.

Take `CC(C)CCc1sc(NC(=O)c2cc(NC(=O)c3cc(NC(=O)CCC(=O)O)cn3C)cn2C)nc1C(=O)NCCCN(C)C.O=C(O)C(F)(F)F`: the Inhibition is given as 6.91%.

Turning to `Cc1ncc(CNc2ccc(C(C)(C)C)cc2)c(N)n1`, the Inhibition is 6.39%.

Turning to `CC(=O)Nc1cc(C(=O)Nc2cc(C(=O)Nc3cc(C(=O)NCCCN(C)C)n(C)c3)n(C)c2)n(C)c1.O=C(O)C(F)(F)F`, the Inhibition amounted to 8.95%.

For `COc1cccc(C(=N)Nc2cc(C(=O)Nc3cc(C(=O)Nc4cc(C(=O)NCCCN(C)C)n(C)c4)n(C)c3)n(C)c2)c1.O=C(O)C(F)(F)F.O=C(O)C(F)(F)F`, the Inhibition is recorded as 16.01%.

For the molecule `COc1ccc(/C=C(/C(=O)Nc2cc(C(=O)Nc3cc(C(=O)NCCCN(C)C)n(C)c3)n(C)c2)c2ccc(OC)cc2)cc1.O=C(O)C(F)(F)F`, the Inhibition is 10.3%.

`COC(=O)CCC(=O)Nc1cc(C(=O)Nc2cc(C(=O)NCCN3CCOCC3)n(C)c2)n(C)c1.O=C(O)C(F)(F)F`: the Inhibition was found to be 13.77%.

As to `CC(=O)N(C(C)=O)c1cc(C(=O)Nc2cc(C(=O)NCCC(=N)N)n(C)c2)n(C)c1.O=C(O)C(F)(F)F`, the Inhibition is reported as 11.03%.

As for `Cc1ncc(CO)c(N)n1`, the Inhibition is listed as -5.34%.

As for `CCOC(=O)c1cc(NC(=O)c2cc(NC(=O)c3nc(N)sc3C(C)C)cn2C)cn1C`, the Inhibition stood at 31.09%.

Consider `CN(C)CCCNC(=O)c1cc(NC(=O)c2cc(NC(=O)c3cc4ccccc4cn3)cn2C)cn1C.O=C(O)C(F)(F)F`, for which the Inhibition is listed as 36.27%.

For `Cc1ncc(CNc2ccccc2F)c(N)n1`, the Inhibition was determined as 18.14%.

On to `CC(=N)Nc1cc(C(=O)Nc2cc(C(=O)Nc3cc(C(=O)NCCN4CCOCC4)n(C)c3)n(C)c2)n(C)c1.O=C(O)C(F)(F)F.O=C(O)C(F)(F)F`, for which the Inhibition stood at 15.64%.

For `CC(C)c1sc(NC(=O)c2cc(NC(=O)c3cc(NC(=O)c4cnc(Cl)c(Cl)c4)cn3C)cn2C)nc1C(=O)NCCCN(C)C.O=C(O)C(F)(F)F`, the Inhibition is reported as -4.4%.

Regarding `CCOC(=O)CCC(NC(=O)c1ccc(NCc2cn(Cc3cnc(C)nc3N)nn2)cc1)C(=O)OCC` (centres undefined), the Inhibition is recorded as -45.33%.

On to `Cc1ncc(Cn2cc(CCC(=O)O)nn2)c(N)n1.O=C(O)C(F)(F)F`, for which the Inhibition is -33.35%.

Turning to `Cc1ncc(Cn2cc(CCCN)nn2)c(N)n1.Cl`, the Inhibition was -39.92%.

Turning to `CC(C)CCn1cc(NC(=O)c2cc(NC(=O)c3cc(NC(=N)c4ccccc4)cn3C)cn2C)cc1C(=O)NCCCN(C)C.O=C(O)C(F)(F)F.O=C(O)C(F)(F)F`, the Inhibition is reported as 7.17%.

Consider `COCCOC1CCN(C(=O)c2cc(NC(=O)c3cc(NC(=O)c4ccc(/C=C/c5cnc6ccccc6c5)cc4)cn3C)cn2C)CC1`, for which the Inhibition amounted to 2.14%.

As for `COc1ccc(CC(=O)Nc2cc(C(=O)Nc3cc(C(=O)Nc4cn(CCCN(C)C)cn4)n(C)c3)n(C)c2)cc1.O=C(O)C(F)(F)F`, the Inhibition was found to be 1.6%.

For `COc1cccc(/C=C/c2ccc(C(=O)Nc3cc(C(=O)Nc4cc(C(=O)NCCN(C)C)n(C)c4)n(C)c3)cc2)c1.O=C(O)C(F)(F)F`, the Inhibition was 3.22%.

In the case of `Cn1cc(NC(=O)c2cc(NC(=O)CCC(=O)O)cn2C)cc1C(=O)NCCN1CCOCC1.O=C(O)C(F)(F)F`, the Inhibition came out at 25.32%.

On to `Cc1ncc(CNc2cccc(F)c2)c(N)n1`, for which the Inhibition is on record as 16.91%.

Consider `COC(=O)c1ccc(C(=O)Nc2cc(C(=O)Nc3cc(C(=O)NCCCN(C)C)n(C)c3)n(C)c2)cc1.O=C(O)C(F)(F)F`, for which the Inhibition is given as -1.54%.

For `COc1cccc(C(=N)Nc2cc(C(=O)Nc3cc(C(=O)Nc4cc(C(=O)NCCCN5CCOCC5)n(C)c4)n(C)c3)n(C)c2)c1.O=C(O)C(F)(F)F.O=C(O)C(F)(F)F`, the Inhibition was determined as 11.64%.

With `Cc1ncc(Cn2cc(CC(N)C(=O)O)nn2)c(N)n1.Cl` (centres undefined), the Inhibition was -45.82%.

Usually Inhibition stands for the drop in the measured response relative to a control, in per cent.
